# Experimental data published in the supplement of paper PMC7411640.
# Where a name gives a salt, the structure may show the parent alone. This is one part of the list. Single values are uncertain here, since repeats match poorly.
# Tested on: MDA-MB-468
# Test: phospho-S6 immunofluorescence (DAPI-normalised), per-plate z-score; higher = higher phospho-S6 signal (less pathway suppression)
# Details: 24 h
# Experimental: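 GPCR-targeted compound library (MedChemExpress HY-L006) tested on MDA-MB-468 PTEN-null TNBC cells in 384-well plates at 0.1, 1 or 10 uM, combined with vehicle, GDC0941 450 nM or lapatinib 1 uM, for 24 h. Phospho-S6 (S240/244) immunofluorescence normalised to DAPI and expressed as a per-plate z-score; values are the mean of biological triplicates.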
# [1] = compound 0.1 µM, co-treatment: GDC0941 450 nM
# [2] = compound 0.1 µM, co-treatment: lapatinib 1 uM
# [3] = compound 0.1 µM, co-treatment: vehicle
# [4] = compound 1 µM, co-treatment: GDC0941 450 nM
# [5] = compound 1 µM, co-treatment: lapatinib 1 uM
# [6] = compound 1 µM, co-treatment: vehicle
# [7] = compound 10 µM, co-treatment: GDC0941 450 nM
# [8] = compound 10 µM, co-treatment: lapatinib 1 uM
# [9] = compound 10 µM, co-treatment: vehicle
Compound,phospho-S6 immunofluorescence (z-score) [1],phospho-S6 immunofluorescence (z-score) [2],phospho-S6 immunofluorescence (z-score) [3],phospho-S6 immunofluorescence (z-score) [4],phospho-S6 immunofluorescence (z-score) [5],phospho-S6 immunofluorescence (z-score) [6],phospho-S6 immunofluorescence (z-score) [7],phospho-S6 immunofluorescence (z-score) [8],phospho-S6 immunofluorescence (z-score) [9]
CN1CCC(=C2c3ccccc3C=Cc3ccccc32)CC1 [Cyproheptadine (hydrochloride sesquihydrate)],-0.04,0.6,-1,-0.3,1.97,-1.74,–,–,–
C[C@H](NC(=O)C(C)(C)Oc1ccc(C(F)(F)F)cn1)[C@@H](Cc1ccc(Cl)cc1)c1cccc(C#N)c1 [Taranabant],-1.46,-0.74,0.3,-4.43,-3.1,-0.6,-4.19,-2.35,-2.4
CC(C)(C)NCC(O)c1ccc(O)c(CO)c1 (configuration not stated) [Salbutamol (hemisulfate)],1.12,1.28,1.2,0.2,0.54,0.93,0.44,1.46,0.8
CCCC(=O)OC(CNC(C)(C)C)COc1nsnc1N1CCOCC1 (racemic) [(RS)-Butyryltimolol],-0.48,-1.57,-1.23,0.16,-1.35,-0.43,0.09,-0.58,-0.47
CC(C)c1noc(N2CCC(COc3ccc(-c4ccc(S(C)(=O)=O)cc4)nc3)CC2)n1,0.16,-0.65,-0.49,-0.48,-1.13,-0.37,-2.9,-4.91,-6.22
